Test results as given in PubChem BioAssay AID720504 (National Center for Advancing Translational Sciences (NCATS), 2013).
Hit rate of the full screen: of about 360,000 compounds, about 10,000 (2.8%) were called active. Inconclusive means that the source gave no clear call. Such entries were picked first, then a sample of the others. Calls come from the whole dose curve; as a rule, active = well fitted inhibition curve with a large enough effect; inconclusive = small, poorly fitted or top-dose-only effect; inactive = flat fitted curve, though single readings scatter. A potency beside an inconclusive call is a rough fit, not a confirmed value.

Sequences of proteins named here, by UniProt entry; tags and fusion partners are left off.
UniProt P53350, whole entry, looked up: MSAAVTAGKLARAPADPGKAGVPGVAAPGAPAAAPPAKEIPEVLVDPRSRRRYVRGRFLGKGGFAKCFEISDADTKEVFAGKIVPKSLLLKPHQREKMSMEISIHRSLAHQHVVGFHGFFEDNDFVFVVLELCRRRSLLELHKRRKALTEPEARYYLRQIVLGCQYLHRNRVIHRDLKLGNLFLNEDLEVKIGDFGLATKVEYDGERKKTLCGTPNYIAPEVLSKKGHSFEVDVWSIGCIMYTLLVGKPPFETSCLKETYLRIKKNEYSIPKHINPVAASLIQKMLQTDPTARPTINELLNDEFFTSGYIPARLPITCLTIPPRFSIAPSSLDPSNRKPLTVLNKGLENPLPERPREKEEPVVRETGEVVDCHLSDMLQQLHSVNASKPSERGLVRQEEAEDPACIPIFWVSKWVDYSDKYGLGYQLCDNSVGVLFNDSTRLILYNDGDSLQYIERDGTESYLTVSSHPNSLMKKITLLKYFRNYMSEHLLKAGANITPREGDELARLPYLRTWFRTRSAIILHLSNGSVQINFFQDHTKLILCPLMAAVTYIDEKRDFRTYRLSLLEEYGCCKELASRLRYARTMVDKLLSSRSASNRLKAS

Molecular target: Serine/threonine-protein kinase PLK1 (Homo sapiens) (UniProt P53350)
Assay: qHTS for Inhibitors of PLK1-PDB (polo-like kinase 1 - polo-box domain): Primary Screen; note: nearly all actives have a fitted effect of over 65% in size; for max response, negative = inhibition: series mostly up to about 57 µM
Conditions: Plk1 PBD binding of FITC phosphopeptide, fluorescence polarization
% is set by controls: 0 for no effect and ±100 for the full control effect; potency is the fitted concentration of half-maximal effect.

Row | Structure (SMILES) | Potency | max response, negative = inhibition
1 | O=C(Nc1cc(S(=O)(=O)N2CCOCC2)ccc1N1CCCCC1)c1ccc(Cl)cc1 | active: 5.32 µM | –
2 | O=C(c1cccc(C(F)(F)F)c1)C1CCCN(Cc2cccn2-c2ncccn2)C1 (configuration not stated) | – | inactive: -6.58%
3 | O=C(O)/C=C/c1cn(-c2ccccc2)nc1-c1cc2ccccc2o1 | – | inconclusive: -31.4% [inhibitor]
4 | O=C(NCc1ccco1)c1ccccc1NS(=O)(=O)c1ccc(Cl)s1 | inconclusive: 26.7 µM [inhibitor, single point] | –
5 | COc1ccc(CN(C)C(=O)c2ccc(OCC(=O)Nc3cccc(C(F)(F)F)c3)c(OC)c2)c(OC)c1 | – | inactive: 4.74%
6 | Cc1ccc(C(=O)Oc2ccc(/C=C3\C(=N)N4N=C(N5CCOCC5)SC4=NC3=O)cc2)cc1 | active: 26.7 µM | –
7 | c1ccc(-c2nc(NCC3CCCO3)c3oc4ccccc4c3n2)cc1 (configuration not stated) | – | inactive: -2.78%
8 | CCOC(=O)C1CCCN(CC(=O)/C=C2/N(C)c3ccccc3C2(C)C)C1 (configuration not stated) | – | inactive: 1.6%
9 | CC(=O)Nc1ccc(CN2CCC(n3nccc3NC(=O)CCc3ccccc3)CC2)cc1 | – | inconclusive: -32.9% [inhibitor]
10 | O=C(O)c1cc(N=Cc2c(O)c3ccccc3oc2=O)ccc1O | inconclusive: 21.2 µM [inhibitor, partial curve] | –
11 | CCCC1OC(c2cc3c(cc2Cl)OCO3)OCC1CC (configuration not stated) | – | inactive: -2.67%
12 | Cc1ccc(NS(=O)(=O)c2ccc(OCC(=O)NCC3CCCO3)cc2)cc1 (configuration not stated) | active: 29.9 µM | –
13 | O=C(CSc1nc2nc(-c3cccs3)cc(C(F)(F)F)c2c(=O)[nH]1)NCc1ccco1 | inconclusive: 18.9 µM [inhibitor, partial curve] | –
14 | c1cc2cn[nH]c2cc1NC1CCCCCC1 | inconclusive: 23.8 µM [inhibitor, single point] | –
15 | Cn1c(=O)c2c(ncn2CCCC(=N)N2CCOCC2)n(C)c1=O | inconclusive: 21.2 µM [inhibitor, single point] | –
16 | Cc1cccc2cc(CN(Cc3cccs3)C(c3nnnn3C3CCCC3)C(C)C)c(=O)[nH]c12 (configuration not stated) | – | inconclusive: -30.7% [inhibitor]
17 | CCOc1ccc(OCC(=O)Nc2ccc(S(=O)(=O)Nc3cc(C)nc(C)n3)cc2)cc1 | – | inactive: -17.8%
18 | Oc1ccccc1CNc1ccc(OC(F)(F)F)cc1 | – | inactive: -7.33%
19 | COc1ccc(OC)c(C(=O)NC(CC(N)=O)c2ccc(N3CCN(c4ccc(F)cc4)CC3)c([N+](=O)[O-])c2)c1 (configuration not stated) | active: 29.9 µM | –
20 | COc1ccc(OC)c(C2C3=C(N=C4SCC(=O)N42)c2ccccc2CC3)c1 (configuration not stated) | inconclusive: 26.7 µM [inhibitor, partial curve] | –
21 | CC(=O)N1c2ccc(S(=O)(=O)N3CCC(C(=O)Nc4cccc(F)c4)CC3)cc2CC1C (configuration not stated) | inconclusive: 26.7 µM [inhibitor, single point] | –
22 | O=c1c2ccccc2c2ccccc2c(=O)n1-c1ccccc1 | inconclusive: 21.2 µM [inhibitor, single point] | –
23 | COC(=O)C1=C(C)N(CCCC(=O)O)C(=O)NC1c1ccc(-c2ccccc2)cc1 (configuration not stated) | – | inactive: -19.3%
24 | Cc1ccc(S(=O)(=O)N2CCN(C(=O)CSC(=S)N3CCCC3)CC2)c(C)c1 | inconclusive: 23.8 µM [inhibitor, single point] | –

Row | Structure (SMILES) | Potency | max response, negative = inhibition
25 | CC(=O)Nc1ccc2c(c1)C(=O)c1ccccc1C2=O | – | inactive: -7.2%
26 | CCOc1cccc(C(c2c(C)n(C)n(-c3ccccc3)c2=O)c2c(C)n(C)n(-c3ccccc3)c2=O)c1OC | – | inactive: -8.22%
27 | CCOC(=O)Cc1c(C)[nH]n(-c2ccccc2)c1=O | – | inactive: -13.3%
28 | CCCCNC(=O)c1nn2c(C(F)(F)F)cc(-c3ccc(OC)cc3)nc2c1Br | active: 11.9 µM | –
29 | COc1ccc(N(C(=O)c2snc(C(N)=O)c2N)C(C(=O)NC2CCCC2)c2cc(OC)ccc2OC)cc1 (configuration not stated) | – | inactive: -12.9%
30 | CCOC(=O)c1c(NC(=O)C2C3C=CC(CC3)C2C(=O)O)sc(C)c1C (configuration not stated) | – | inconclusive: -30.3% [inhibitor]
31 | Cc1c(O)c(S(=O)c2ccccc2)c(=O)n(-c2ccccc2)c1-c1ccccc1 (configuration not stated) | inconclusive: 21.2 µM [inhibitor, single point] | –
32 | Cc1ccc(CN2C(=O)N/C(=C\c3cccn3-c3cccc(C(=O)O)c3)C2=O)cc1 | inconclusive: 21.2 µM [inhibitor, partial curve] | –
33 | O=C(OCc1c(Cl)cccc1Cl)c1ccncc1 | – | inactive: -11.8%
34 | CCOc1ccc(CNCc2ccc(C(=O)O)cc2)cc1OC | inconclusive: 21.2 µM [inhibitor, partial curve] | –
35 | CCC(CC)c1nnc(NC(=O)c2ccc3c(c2)OCO3)s1 | active: 26.7 µM | –
36 | CCN(Cc1ccncc1)C(=O)c1ccccc1NS(=O)(=O)c1ccc(F)cc1 | inconclusive: 21.2 µM [inhibitor, partial curve] | –
37 | COc1ccc2nc(C)c3cc(C)oc3c2c1 | inconclusive: 26.7 µM [inhibitor, partial curve] | –
38 | C=CCNc1nnc(SC2CC(=O)N(c3ccc(OCCC)cc3)C2=O)s1 (configuration not stated) | active: 21.2 µM | –
39 | Cc1cccc(OCCCC(=O)N2CCCc3ccccc32)c1C | – | inactive: -2.3%
40 | Cc1cccnc1C(NC(=O)C1CCN(CCCc2ccccc2)CC1)c1ccc(Cl)cc1 (configuration not stated) | – | inactive: -2.75%
41 | COCc1ccc(C(=O)N(C)CC2CCCN(CCc3ccc(OC)cc3)C2)o1 (configuration not stated) | – | inactive: -9.71%
42 | CCn1c(NC(=S)Nc2ccccc2)nc2ccccc21 | – | inactive: -8.02%
43 | CC1(C(=O)NS(=O)(=O)C2CC2)CCCN(C(=O)c2ccc(F)cc2Cl)C1 (configuration not stated) | – | inactive: -7.32%
44 | CN(c1ccc(C(=O)N2CCN(c3ccc(F)cc3)CC2)cc1)S(C)(=O)=O | active: 3.36 µM | –
45 | CC(=O)Nc1ccc(/C=N/N2CCCCC2)cc1 | – | inconclusive: -31% [inhibitor]
46 | O=C(NCc1ccccc1Br)c1cccc2c1C(=O)c1ccc(N3CCC(Cc4ccccc4)CC3)cc1S2(=O)=O | inconclusive: 16.8 µM [inhibitor, partial curve] | –
47 | O=C(COC(=O)c1cc[n+]([O-])cc1)Nc1ccc(SC(F)F)cc1 | inconclusive: 33.6 µM [inhibitor, partial curve] | –

A run of entries from further up:
Row | Structure (SMILES) | Potency | max response, negative = inhibition
3 | O=C(O)/C=C/c1cn(-c2ccccc2)nc1-c1cc2ccccc2o1 | – | inconclusive: -31.4% [inhibitor]
4 | O=C(NCc1ccco1)c1ccccc1NS(=O)(=O)c1ccc(Cl)s1 | inconclusive: 26.7 µM [inhibitor, single point] | –
